Results published in the supplement of paper PMC8728848.
This is one part of the list.

Experiments:
Assay in all cases: glycan array binding signal (z-score within array); higher = stronger binding
Conditions in all cases: glycan notation: IUPAC condensed, linker removed
[1] = target: Fuc(a1-2)[Gal(a1-3)]Gal(b1-4)GlcNAc(b1-2)Man(a1-3)[Fuc(a1-2)[Gal(a1-3)]Gal(b1-4)GlcNAc(b1-2)Man(a1-6)]Man(b1-4)GlcNAc(b1-4)GlcNAc
How it was run: (§1)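 Glycan array data came from 3228 arrays in the Consortium for Functional Glycomics database, and only arrays with an available protein sequence were kept. Glycan names were put into IUPAC-condensed notation, and columns mapping to the same glycan were averaged. The binding signal is a within-array Z-score, averaged across arrays of one protein sequence run at different concentrations or buffers and across linkers. A negative Z-score can be read as non-binding.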

[2] = target: Fuc(a1-2)[Gal(a1-3)]Gal(b1-4)GlcNAc(b1-2)Man(a1-3)[Fuc(a1-2)[Gal(a1-3)]Gal(b1-4)GlcNAc(b1-2)Man(a1-6)]Man(b1-4)GlcNAc(b1-4)[Fuc(a1-6)]GlcNAc
How it was run: as §1

[3] = target: Fuc(a1-2)[Gal(a1-3)]Gal(b1-4)GlcNAc(b1-3)GalNAc
How it was run: as §1

[4] = target: Fuc(a1-2)[Gal(a1-3)]Gal(b1-4)GlcNAc(b1-3)[Fuc(a1-2)[Gal(a1-3)]Gal(b1-4)GlcNAc(b1-6)]GalNAc
How it was run: as §1

[5] = target: Fuc(a1-2)[Gal(a1-3)]Gal(b1-4)GlcNAc(b1-6)GalNAc
How it was run: as §1

[6] = target: Fuc(a1-2)[Gal(a1-3)]Gal(b1-4)[Fuc(a1-3)]Glc
How it was run: as §1

[7] = target: Fuc(a1-2)[Gal(a1-3)]Gal(b1-4)[Fuc(a1-3)]GlcNAc
How it was run: as §1

[8] = target: Fuc(a1-2)[Gal(a1-3)]Gal(b1-4)[Fuc(a1-3)]GlcNAc(b1-3)GalNAc
How it was run: as §1

[9] = target: Fuc(a1-2)[Gal(a1-4)]Gal(b1-4)GlcNAc
How it was run: as §1

[10] = target: Fuc(a1-2)[GalNAc(a1-3)]Gal
How it was run: as §1

[11] = target: Fuc(a1-2)[GalNAc(a1-3)]Gal(b1-3)GalNAc(a1-3)[Fuc(a1-2)]Gal(b1-4)GlcNAc
How it was run: as §1

[12] = target: Fuc(a1-2)[GalNAc(a1-3)]Gal(b1-3)GalNAc(b1-3)Gal(a1-4)Gal(b1-4)Glc
How it was run: as §1

[13] = target: Fuc(a1-2)[GalNAc(a1-3)]Gal(b1-3)GlcNAc
How it was run: as §1

[14] = target: Fuc(a1-2)[GalNAc(a1-3)]Gal(b1-3)GlcNAc(b1-2)Man(a1-3)[Fuc(a1-2)[GalNAc(a1-3)]Gal(b1-3)GlcNAc(b1-2)Man(a1-6)]Man(b1-4)GlcNAc(b1-4)GlcNAc
How it was run: as §1

[15] = target: Fuc(a1-2)[GalNAc(a1-3)]Gal(b1-3)GlcNAc(b1-2)Man(a1-3)[Fuc(a1-2)[GalNAc(a1-3)]Gal(b1-3)GlcNAc(b1-2)Man(a1-6)]Man(b1-4)GlcNAc(b1-4)[Fuc(a1-6)]GlcNAc
How it was run: as §1

[16] = target: Fuc(a1-2)[GalNAc(a1-3)]Gal(b1-3)GlcNAc(b1-3)GalNAc
How it was run: as §1

[17] = target: Fuc(a1-2)[GalNAc(a1-3)]Gal(b1-3)GlcNAc(b1-6)GalNAc
How it was run: as §1

[18] = target: Fuc(a1-2)[GalNAc(a1-3)]Gal(b1-4)Glc
How it was run: as §1

[19] = target: Fuc(a1-2)[GalNAc(a1-3)]Gal(b1-4)GlcNAc
How it was run: as §1

[20] = target: Fuc(a1-2)[GalNAc(a1-3)]Gal(b1-4)GlcNAc(b1-2)Man
How it was run: as §1

[21] = target: Fuc(a1-2)[GalNAc(a1-3)]Gal(b1-4)GlcNAc(b1-2)Man(a1-3)[Fuc(a1-2)[GalNAc(a1-3)]Gal(b1-4)GlcNAc(b1-2)Man(a1-6)]Man(b1-4)GlcNAc(b1-4)GlcNAc
How it was run: as §1

[22] = target: Fuc(a1-2)[GalNAc(a1-3)]Gal(b1-4)GlcNAc(b1-2)Man(a1-3)[Fuc(a1-2)[GalNAc(a1-3)]Gal(b1-4)GlcNAc(b1-2)Man(a1-6)]Man(b1-4)GlcNAc(b1-4)[Fuc(a1-6)]GlcNAc
How it was run: as §1

[23] = target: Fuc(a1-2)[GalNAc(a1-3)]Gal(b1-4)GlcNAc(b1-3)Gal(b1-4)GlcNAc
How it was run: as §1

[24] = target: Fuc(a1-2)[GalNAc(a1-3)]Gal(b1-4)GlcNAc(b1-3)Gal(b1-4)GlcNAc(b1-3)Gal(b1-4)GlcNAc
How it was run: as §1

[25] = target: Fuc(a1-2)[GalNAc(a1-3)]Gal(b1-4)GlcNAc(b1-3)GalNAc
How it was run: as §1

[26] = target: Fuc(a1-2)[GalNAc(a1-3)]Gal(b1-4)GlcNAc(b1-3)[Fuc(a1-2)[GalNAc(a1-3)]Gal(b1-4)GlcNAc(b1-6)]GalNAc
How it was run: as §1

[27] = target: Fuc(a1-2)[GalNAc(a1-3)]Gal(b1-4)GlcNAc(b1-6)GalNAc
How it was run: as §1

[28] = target: Fuc(a1-2)[GalNAc(a1-3)]Gal(b1-4)[Fuc(a1-3)]GlcNAc
How it was run: as §1

[29] = target: Fuc(a1-2)[GalNAc(a1-3)]Gal(b1-4)[Fuc(a1-3)]GlcNAc(b1-3)GalNAc
How it was run: as §1

[30] = target: Fuc(a1-2)[GalNAc(a1-4)]Gal(b1-4)GlcNAc
How it was run: as §1

[31] = target: Fuc(a1-2)[GalNAc(b1-3)]Gal
How it was run: as §1

[32] = target: Fuc(a1-3)GlcNAc
How it was run: as §1

[33] = target: Fuc(a1-3)[Gal(b1-4)]Glc6S
How it was run: as §1

[34] = target: Fuc(a1-3)[Gal(b1-4)]GlcNAc
How it was run: as §1

[35] = target: Fuc(a1-3)[Gal(b1-4)]GlcNAc(b1-2)Man
How it was run: as §1

[36] = target: Fuc(a1-3)[Gal(b1-4)]GlcNAc(b1-2)Man(a1-3)[Fuc(a1-3)[Gal(b1-4)]GlcNAc(b1-2)Man(a1-6)]Man(b1-4)GlcNAc(b1-4)GlcNAc
How it was run: as §1

[37] = target: Fuc(a1-3)[Gal(b1-4)]GlcNAc(b1-2)Man(a1-3)[Fuc(a1-3)[Gal(b1-4)]GlcNAc(b1-2)Man(a1-6)]Man(b1-4)GlcNAc(b1-4)[Fuc(a1-6)]GlcNAc
How it was run: as §1

[38] = target: Fuc(a1-3)[Gal(b1-4)]GlcNAc(b1-3)Gal(b1-3)[Fuc(a1-4)]GlcNAc
How it was run: as §1

[39] = target: Fuc(a1-3)[Gal(b1-4)]GlcNAc(b1-3)Gal(b1-4)[Fuc(a1-3)]GlcNAc
How it was run: as §1

[40] = target: Fuc(a1-3)[Gal(b1-4)]GlcNAc(b1-3)Gal(b1-4)[Fuc(a1-3)]GlcNAc(b1-3)Gal(b1-4)[Fuc(a1-3)]GlcNAc
How it was run: as §1

[41] = target: Fuc(a1-3)[Gal(b1-4)]GlcNAc(b1-3)GalNAc
How it was run: as §1

[42] = target: Fuc(a1-3)[Gal(b1-4)]GlcNAc(b1-6)GalNAc
How it was run: as §1

[43] = target: Fuc(a1-3)[Gal(b1-4)]GlcNAc(b1-6)[Gal(b1-3)GlcNAc(b1-3)]Gal(b1-4)Glc
How it was run: as §1

[44] = target: Fuc(a1-3)[Gal(b1-4)]GlcNAc6S
How it was run: as §1

[45] = target: Fuc(a1-3)[Gal3S(b1-4)]Glc
How it was run: as §1

[46] = target: Fuc(a1-3)[Gal3S(b1-4)]GlcNAc
How it was run: as §1

[47] = target: Fuc(a1-3)[Gal3S(b1-4)]GlcNAc6S
How it was run: as §1

[48] = target: Fuc(a1-3)[GalNAc(b1-4)]GlcNAc
How it was run: as §1

[49] = target: Fuc(a1-3)[GalNAc(b1-4)]GlcNAc6S
How it was run: as §1

[50] = target: Fuc(a1-4)GlcNAc
How it was run: as §1

[51] = target: Fuc(b1-3)GlcNAc
How it was run: as §1

[52] = target: Gal(a1-2)Gal
How it was run: as §1

[53] = target: Gal(a1-3)Gal
How it was run: as §1

[54] = target: Gal(a1-3)Gal(b1-3)GlcNAc
How it was run: as §1

[55] = target: Gal(a1-3)Gal(b1-3)GlcNAc(b1-2)Man
How it was run: as §1

[56] = target: Gal(a1-3)Gal(b1-3)GlcNAc(b1-2)Man(a1-3)[Gal(a1-3)Gal(b1-3)GlcNAc(b1-2)Man(a1-6)]Man(b1-4)GlcNAc(b1-4)GlcNAc
How it was run: as §1

[57] = target: Gal(a1-3)Gal(b1-3)GlcNAc(b1-3)GalNAc
How it was run: as §1

[58] = target: Gal(a1-3)Gal(b1-3)GlcNAc(b1-6)GalNAc
How it was run: as §1

[59] = target: Gal(a1-3)Gal(b1-3)[Fuc(a1-4)]GlcNAc(b1-2)Man(a1-3)[Gal(a1-3)Gal(b1-3)[Fuc(a1-4)]GlcNAc(b1-2)Man(a1-6)]Man(b1-4)GlcNAc(b1-4)GlcNAc
How it was run: as §1

[60] = target: Gal(a1-3)Gal(b1-4)Glc
How it was run: as §1

B1: Clec12b (Mus musculus), Q149M0 (protein)
chain: MSDEVTYATLMLQDSARVRGNQDGNNLRKEGHPAQSSLWRGAALSLMTLCLVLVTGLVTLATMFLQVSNDINSDSEKLSQLQKSIHPQQDNLSESLNSSRKSLTEESLQSQISALLERQEQMATKLCKEFLIHASDHKCNPCPKTWQWYGNSCYYFSINEEKSWSDSRKDCIDKNATLVKIDSTEERDLLQSQLSLTFSFFWLGLSWNSSGRNWLWEDGSFPPPTLFSDKELASFNGSRDCAYFERGNIYASRCSAEIPWICEKTASLVKTEDLD
- glycan array binding signal (z-score) [1]: 0.853
- glycan array binding signal (z-score) [2]: -0.426
- glycan array binding signal (z-score) [3]: -0.152
- glycan array binding signal (z-score) [4]: 0.043
- glycan array binding signal (z-score) [5]: -0.431
- glycan array binding signal (z-score) [6]: 0.143
- glycan array binding signal (z-score) [7]: -0.445
- glycan array binding signal (z-score) [8]: -0.422
- glycan array binding signal (z-score) [9]: -0.083
- glycan array binding signal (z-score) [10]: 0.118
- glycan array binding signal (z-score) [11]: -0.495
- glycan array binding signal (z-score) [12]: -0.72
- glycan array binding signal (z-score) [13]: -0.355
- glycan array binding signal (z-score) [14]: 0.014
- glycan array binding signal (z-score) [15]: -0.336
- glycan array binding signal (z-score) [16]: -0.397
- glycan array binding signal (z-score) [17]: 4.57
- glycan array binding signal (z-score) [18]: -0.43
- glycan array binding signal (z-score) [19]: 0.126
- glycan array binding signal (z-score) [20]: -0.043
- glycan array binding signal (z-score) [21]: -0.37
- glycan array binding signal (z-score) [22]: -0.026
- glycan array binding signal (z-score) [23]: -0.749
- glycan array binding signal (z-score) [24]: -0.115
- glycan array binding signal (z-score) [25]: -0.118
- glycan array binding signal (z-score) [26]: -0.622
- glycan array binding signal (z-score) [27]: 0.308
- glycan array binding signal (z-score) [28]: -0.288
- glycan array binding signal (z-score) [29]: 1.59
- glycan array binding signal (z-score) [30]: -0.386
- glycan array binding signal (z-score) [31]: 1.39
- glycan array binding signal (z-score) [32]: -0.323
- glycan array binding signal (z-score) [33]: 0.716
- glycan array binding signal (z-score) [34]: -0.034
- glycan array binding signal (z-score) [35]: -0.713
- glycan array binding signal (z-score) [36]: 0.32
- glycan array binding signal (z-score) [37]: 0.501
- glycan array binding signal (z-score) [38]: -0.775
- glycan array binding signal (z-score) [39]: -0.443
- glycan array binding signal (z-score) [40]: -0.759
- glycan array binding signal (z-score) [41]: -0.033
- glycan array binding signal (z-score) [42]: 2.44
- glycan array binding signal (z-score) [43]: -0.766
- glycan array binding signal (z-score) [44]: 0.067
- glycan array binding signal (z-score) [45]: -0.303
- glycan array binding signal (z-score) [46]: -0.633
- glycan array binding signal (z-score) [47]: -0.365
- glycan array binding signal (z-score) [48]: -0.607
- glycan array binding signal (z-score) [49]: -0.487
- glycan array binding signal (z-score) [50]: -0.43
- glycan array binding signal (z-score) [51]: -0.258
- glycan array binding signal (z-score) [52]: 0.302
- glycan array binding signal (z-score) [53]: 0.181
- glycan array binding signal (z-score) [54]: 5.35
- glycan array binding signal (z-score) [55]: -0.666
- glycan array binding signal (z-score) [56]: 2.5
- glycan array binding signal (z-score) [57]: -0.032
- glycan array binding signal (z-score) [58]: -0.324
- glycan array binding signal (z-score) [59]: 0.289
- glycan array binding signal (z-score) [60]: -0.491
